The source of these data is PMC12849885.

For at least one entry, the source does not settle the construct or the ends of the probe.

Series [1] has as its system His-FoxO (Recilia dorsalis). As to the kind of experiment: EMSA. The conditions noted are these: supershift with anti-FoxO antibody; EMSA/Gel-Shift Binding Buffer (Beyotime GS005), 25 C, 20 min; 6% polyacrylamide gel in Tris-borate; salt and pH not stated; recombinant protein; protein details: His; label: Cy5 (legend of Fig 5D says biotin). A general note: In EMSA bound probe runs differently from free probe, usually more slowly.

Series [2] deals with His-FoxO (Recilia dorsalis). As to the kind of experiment: competition with a labelled probe. The conditions noted are these: unlabeled dilution series against labeled probe B; EMSA/Gel-Shift Binding Buffer (Beyotime GS005), 25 C, 20 min; 6% polyacrylamide gel in Tris-borate; salt and pH not stated; recombinant protein; protein details: His.

As to “ATCATAAATATGTTTATTTATGATAATTTA (double strand) [BOK promoter probe B]”, the binding result in series [1] is listed as “binds”.

On to “ATCATAAATATGTTTATTTATGATAATTTA (double strand) [unlabeled competitor B]”, for which, in series [2], the binding result is “binds”.
